Values quoted from earlier work in US11700853B2, “Plant health compositions comprising a water-soluble pesticide and a water-insoluble agrochemical” (priority 2010, dated 2023).
At least one structure is not confirmed: it was looked up by name or label, or the drawing left a doubt.

Settings: cited from earlier work

| Compound | octanol-water partition coefficient (KOW) [log10P] |
| --- | --- |
| CO/C=C(/C(=O)OC)c1ccccc1COc1cccc(C(F)(F)F)n1 [picoxystrobin] | 3.6 |
| Cc1ccc(N(SC(F)(Cl)Cl)S(=O)(=O)N(C)C)cc1 [tolyfluanid] | 3.9 |
